Laboratory results: PubChem BioAssay AID1224830 (NIAID, 2016)
Purpose: 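Host factors that control LPS-induced TNF expression in human macrophages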 (primary screen). Cell system: human THP-1 monocytic leukaemia cells, TNF dual-luciferase reporter clone, PMA-differentiated to macrophage-like cells. Knock-down reagent: siRNA pool against human genes, 50 nM. Time to read-out: LPS for 4 h, given about 3 days after siRNA transfection. Conditions: bacterial LPS (TLR4 ligand), 10 ng/ml. Detection: 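TNF firefly reporter luminescence divided by renilla, normalised to the plate median, then turned into a robust z-score for each replicate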. Scale: TNF reporter robust z-score: higher = stronger TNF reporter response to LPS. Rule for the call: 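Each well counts as active if its z-score is over 2.8 or under -1.5; controls are left without a call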.
Here is one part, drawn at random, of about 18,000 reagents. About 2,900 of all reagents (16%) count as active. 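Calls are made per well; low scores hint the gene aids the LPS response, high scores that it dampens it.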 Repeated entries: four replicate wells of each siRNA pool. No sequences are given here.

target | TNF reporter robust z-score | Outcome
FDCSP | – | inactive
FDCSP | -0.8 | inactive
FDCSP | -0.76 | inactive
FDCSP | -0.98 | inactive
FDCSP | -0.92 | inactive
ANO2 | 0.46 | inactive
ANO2 | 0.23 | inactive
ANO2 | 0.09 | inactive
ANO2 | 0.65 | inactive
HAGH | 1.16 | inactive
HAGH | 4.19 | active
HAGH | 3.57 | active
HAGH | 2.65 | inactive
ADAMTS17 | -0.32 | inactive
ADAMTS17 | -0.52 | inactive
ADAMTS17 | -0.7 | inactive
ADAMTS17 | -0.76 | inactive
FAM86C1P | 0.99 | inactive
FAM86C1P | 0.7 | inactive
FAM86C1P | 0.25 | inactive
FAM86C1P | 0.56 | inactive
PDXDC1 | -1.63 | active
PDXDC1 | -1.12 | inactive
PDXDC1 | -1.31 | inactive
PDXDC1 | -1.05 | inactive
BCL2L11 | -0.14 | inactive
BCL2L11 | -0.06 | inactive
BCL2L11 | -0.91 | inactive
BCL2L11 | 0.71 | inactive
STRC | 1.08 | inactive
STRC | 2.09 | inactive
STRC | 1.6 | inactive
STRC | 2.25 | inactive
ABCC4 | 0.79 | inactive
ABCC4 | 1 | inactive
ABCC4 | 1.09 | inactive
ABCC4 | 1.83 | inactive
SCN7A | -0.36 | inactive
SCN7A | -0.63 | inactive
SCN7A | 0.03 | inactive
DENND10P1 | -0.06 | inactive
DENND10P1 | -0.26 | inactive
DENND10P1 | 0.79 | inactive
DENND10P1 | 2.22 | inactive
ADRB1 | 2.06 | inactive
ADRB1 | 2.77 | inactive
ADRB1 | 1.85 | inactive
ADRB1 | 1.5 | inactive
MTX3 | 0.04 | inactive
MTX3 | -0.11 | inactive
MTX3 | 0.14 | inactive
MTX3 | -0.45 | inactive
PIGT | -0.83 | inactive
PIGT | -0.25 | inactive
PIGT | 0.04 | inactive
PIGT | 0.08 | inactive
ADCY2 | 2.77 | inactive
ADCY2 | 2.54 | inactive
ADCY2 | 0.42 | inactive
ADCY2 | 0.63 | inactive
DOCK3 | -0.81 | inactive
DOCK3 | -1.06 | inactive
DOCK3 | -0.18 | inactive
DOCK3 | -0.16 | inactive
ING4 | 0.86 | inactive
ING4 | 0.51 | inactive
ING4 | 1.55 | inactive
ING4 | 2.65 | inactive
ALKBH2 | 0.27 | inactive
ALKBH2 | 0.49 | inactive
ALKBH2 | 1.17 | inactive
ALKBH2 | 0.2 | inactive
MYH4 | -0.6 | inactive
MYH4 | -0.03 | inactive
MYH4 | -0.39 | inactive
MYH4 | 1.72 | inactive
PPP1R9A | 0.7 | inactive
PPP1R9A | -0.07 | inactive
PPP1R9A | -0.74 | inactive
PPP1R9A | 1.44 | inactive
AQP1 | -0.48 | inactive
AQP1 | 0.16 | inactive
AQP1 | 0.34 | inactive
ZFP42 | -0.81 | inactive
ZFP42 | -0.46 | inactive
ZFP42 | -0.56 | inactive
ZFP42 | -0.59 | inactive
TSLIG1 | -0.16 | inactive
TSLIG1 | 0.86 | inactive
TSLIG1 | -0.24 | inactive
TSLIG1 | 0.18 | inactive
MFSD2A | 2.03 | inactive
MFSD2A | 1.41 | inactive
MFSD2A | 0.1 | inactive
MFSD2A | 0.81 | inactive
PUS7L | 3.06 | active
PUS7L | 3.82 | active
PUS7L | 2.75 | inactive
PUS7L | -0.89 | inactive
DGKI | -0.03 | inactive
DGKI | -0.54 | inactive
DGKI | 0 | inactive
DGKI | 0.38 | inactive
TMEM244 | -0.92 | inactive
TMEM244 | -0.48 | inactive
TMEM244 | 1.5 | inactive
TMEM244 | 1.47 | inactive
ZBTB43 | 0.27 | inactive
ZBTB43 | 2.04 | inactive
ZBTB43 | 1.08 | inactive
ZBTB43 | 1.14 | inactive

Entries listed so far whose gene name starts with M or m:
target | TNF reporter robust z-score | Outcome
MTX3 | 0.04 | inactive
MTX3 | -0.11 | inactive
MTX3 | 0.14 | inactive
MTX3 | -0.45 | inactive
MYH4 | -0.6 | inactive
MYH4 | -0.03 | inactive
MYH4 | -0.39 | inactive
MYH4 | 1.72 | inactive
MFSD2A | 2.03 | inactive
MFSD2A | 1.41 | inactive
MFSD2A | 0.1 | inactive
MFSD2A | 0.81 | inactive
